“Also recorded” adds a separate entry of the source. Some results were stated once for a whole list of compounds, not compound by compound.
Test system: isolated heart
Assay: Experiment 2-2 Activity onto the isolated heart (with duration)
Design: species or system Japanese white rabbit
Settings: Table 7
Description: Japanese white rabbit (weighing 2.2-2.5 kg) was anesthetized by introvenous injection of nembutal (20 mg/kg) and then sacrificed by bleeding from common carotid artery. […] There were measured the perfusion volume with a drop-counting meter (ET-600G type, manufactured by Nippon Koden K.K.) and the heart pulse and the contractility via a force-displacement transducer (FD pick up, SB-IT type, manufactured by Nippon Koden K.K.) (for measuring heart pulse, an instant pulse meter (AT-601G type, minufactured by Nippon Koden K.K.) being further used).
The test compounds were dissolved in ethanol, and the solution was diluted in 100-fold with purified water, and the diluted solution was administered in an amount of 0.1 ml/heart (i.e. 3 μg/heart).
The activity was measured in the same manner as described in Experiment 2-1 except that in some test compounds, the dose was in 1 μg/heart. Besides, the duration of the activity was evaluated by counting the time until the coronary perfusion volume became to the initial level before the administration of the test compound.

Question: Which results are given for CCCCCCCCCOC(=O)C1=C(C)NC(C)=C(C(=O)NC2CC2)C1c1ccccc1[N+](=O)[O-] (centres unmarked) [Example 83, n-nonyl 2,6-dimethyl-3-cyclopropylaminocarbonyl-4-(o-nitrophenyl)-1,4-dihydropyridine-5-carboxylate]?
Answer: inhibitions on the heart pulse and contactility (in words): temperate inhibitions on the heart pulse and contactility; coronary vasodilating activity (in words) (comparison with nifedipine and nicardipine hydrochloride where stated): potent coronary vasodilating activity; also recorded: more potent coronary vasodilating activity with longer duration

Source: US4874773A, “3-Aminocarbonyl-1,4-dihydropyridine-5-carboxylic acid compounds, and pharmaceutical composition containing the same” (priority 1985, dated 1989)
